These are yes or no findings as the source states them, for the method shown. Binding seen in cells or lysates may run through a third protein. Here binding means that the protein was enriched with, or labelled near, the bait; the list need not be complete. Sequences can lack the tags named with a protein.

Protein sequences, listed by entry. Tags and fused reporters are not part of them.
UniProt P38431: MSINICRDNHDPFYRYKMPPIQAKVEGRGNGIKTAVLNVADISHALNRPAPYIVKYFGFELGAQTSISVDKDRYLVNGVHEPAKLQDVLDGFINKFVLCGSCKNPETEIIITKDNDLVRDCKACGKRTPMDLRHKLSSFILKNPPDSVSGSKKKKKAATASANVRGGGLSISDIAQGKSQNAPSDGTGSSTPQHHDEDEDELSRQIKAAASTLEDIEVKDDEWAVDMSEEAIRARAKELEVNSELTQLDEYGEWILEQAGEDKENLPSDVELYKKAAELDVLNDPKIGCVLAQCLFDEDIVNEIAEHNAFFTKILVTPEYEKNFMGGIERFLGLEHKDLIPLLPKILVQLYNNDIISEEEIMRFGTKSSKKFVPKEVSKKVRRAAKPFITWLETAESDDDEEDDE

In the test the target is T1, Clu1-GFP-BirA* (S. cerevisiae) (UniProt Q03690).
T1 sequence: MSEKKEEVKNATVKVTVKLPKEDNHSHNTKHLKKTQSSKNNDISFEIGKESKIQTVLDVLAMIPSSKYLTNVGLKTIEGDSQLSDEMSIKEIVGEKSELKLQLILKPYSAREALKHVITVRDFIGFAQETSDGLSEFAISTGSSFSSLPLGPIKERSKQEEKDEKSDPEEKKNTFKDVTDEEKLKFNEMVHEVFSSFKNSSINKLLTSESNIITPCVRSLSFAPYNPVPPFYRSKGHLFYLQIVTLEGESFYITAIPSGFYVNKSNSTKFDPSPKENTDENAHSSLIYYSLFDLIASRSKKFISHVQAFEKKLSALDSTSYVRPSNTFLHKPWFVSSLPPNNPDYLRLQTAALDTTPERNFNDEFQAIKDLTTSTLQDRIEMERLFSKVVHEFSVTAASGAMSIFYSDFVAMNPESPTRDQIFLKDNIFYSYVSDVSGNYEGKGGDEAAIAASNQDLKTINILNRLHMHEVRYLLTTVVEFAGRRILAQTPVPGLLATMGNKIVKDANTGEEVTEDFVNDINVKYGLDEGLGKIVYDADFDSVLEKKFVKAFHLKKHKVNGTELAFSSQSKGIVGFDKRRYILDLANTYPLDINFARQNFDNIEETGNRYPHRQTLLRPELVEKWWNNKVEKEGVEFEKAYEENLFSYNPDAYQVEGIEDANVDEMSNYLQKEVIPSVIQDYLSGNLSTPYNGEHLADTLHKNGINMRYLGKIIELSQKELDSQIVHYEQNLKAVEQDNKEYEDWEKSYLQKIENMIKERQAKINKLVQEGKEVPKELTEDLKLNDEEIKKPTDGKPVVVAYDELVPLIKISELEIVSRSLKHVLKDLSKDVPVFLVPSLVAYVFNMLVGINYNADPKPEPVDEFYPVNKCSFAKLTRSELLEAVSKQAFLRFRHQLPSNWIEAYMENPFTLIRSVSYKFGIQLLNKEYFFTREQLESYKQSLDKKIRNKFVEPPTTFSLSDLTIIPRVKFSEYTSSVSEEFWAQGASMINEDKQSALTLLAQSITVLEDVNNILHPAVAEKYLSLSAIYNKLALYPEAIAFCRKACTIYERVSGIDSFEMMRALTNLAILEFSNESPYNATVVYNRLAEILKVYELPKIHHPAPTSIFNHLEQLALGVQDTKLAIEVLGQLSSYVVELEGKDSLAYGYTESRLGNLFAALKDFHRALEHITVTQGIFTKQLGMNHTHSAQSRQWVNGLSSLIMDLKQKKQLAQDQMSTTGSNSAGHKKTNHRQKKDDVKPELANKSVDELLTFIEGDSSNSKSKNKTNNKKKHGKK
Description: proximity labelling; BioID: knock-in Clu1-GFP-BirA* strain against a strain expressing cytosolic BirA*; 50 uM biotin for 16 h, log phase and PD phase; streptavidin agarose purification in 8 M urea, 1% SDS; LC-MS/MS, label-free quantification.

With “translation initiation factor eIF5 (Tif5) (from UniProt P38431 1-405)”, the binding result was “binds”.

B1: RpL20a (protein, UniProt P0CX23 1-172)
chain: MAHFKEYQVIGRRLPTESVPEPKLFRMRIFASNEVIAKSRYWYFLQKLHKVKKASGEIVSINQINEAHPTKVKNFGVWVRYDSRSGTHNMYKEIRDVSRVAAVETLYQDMAARHRARFRSIHILKVAEIEKTADVKRQYVKQFLTKDLKFPLPHRVQKSTKTFSYKRPSTFY
With B1, the binding result was “binds”.

B2: Ses1 (protein, UniProt P07284 1-462)
chain: MLDINQFIEDKGGNPELIRQSQKARNASVEIVDEIISDYKDWVKTRFELDELNKKFNKLQKDIGLKFKNKEDASGLLAEKEKLTQQKKELTEKEQQEDKDLKKKVFQVGNIVHPSVVVSNDEENNELVRTWKPEDLEAVGPIASVTGKPASLSHHEILLRLDGYDPDRGVKICGHRGYFFRNYGVFLNQALINYGLQFLAAKGYIPLQAPVMMNKELMSKTAQLSEFDEELYKVIDGEDEKYLIATSEQPISAYHSGEWFEKPQEQLPIHYVGYSSCFRREAGSHGKDAWGVFRVHAFEKIEQFVITEPEKSWEEFEKMISYSEEFYKSLKLPYRIVGIVSGELNNAAAKKYDLEAWFPYQKEYKELVSCSNCTDYQSRNLEIRCGIKKMGDREKKYVHCLNSTLAATQRALCCILENYQTEDGLVVPEVLRKYIPGEPEFLPFVNELPKNSTSSKDKKKKN
As for B2, the binding entry was “binds”.

B3: Ald5 (protein, UniProt P40047 24-520)
chain: SQAPLRVPITLPNGFTYEQPTGLFINGEFVASKQKKTFDVINPSNEEKITTVYKAMEDDVDEAVAAAKKAFETKWSIVEPEVRAKALFNLADLVEKHQETLAAIESMDNGKSLFCARGDVALVSKYLRSCGGWADKIYGNVIDTGKNHFTYSIKEPLGVCGQIIPWNFPLLMWSWKIGPALATGNTVVLKPAETTPLSALFASQLCQEAGIPAGVVNILPGSGRVVGERLSAHPDVKKIAFTGSTATGRHIMKVAADTVKKVTLELGGKSPNIVFADADLDKAVKNIAFGIFYNSGEVCCAGSRIYIQDTVYEEVLQKLKDYTESLKVGDPFDEEVFQGAQTSDKQLHKILDYVDVAKSEGARLVTGGARHGSKGYFVKPTVFADVKEDMRIVKEEVFGPIVTVSKFSTVDEVIAMANDSQYGLAAGIHTNDINKAVDVSKRVKAGTVWINTYNNFHQNVPFGGFGQSGIGREMGEAALSNYTQTKSVRIAIDKPIR
Turning to B3, the binding entry was “binds”.

B4: Rpl17b (protein, UniProt P46990 1-184)
chain: MARYGATSTNPAKSASARGSYLRVSFKNTRETAQAINGWELTKAQKYLDQVLDHQRAIPFRRFNSSIGRTAQGKEFGVTKARWPAKSVKFVQGLLQNAAANAEAKGLDATKLYVSHIQVNQAPKQRRRTYRAHGRINKYESSPSHIELVVTEKEEAVAKAAEKKVVRLTSRQRGRIAAQKRISA
Consider B4, for which the binding result is recorded as “binds”.

B5: translation initiation factor eIF-4B (Tif3) (protein, UniProt P34167 1-436)
chain: MAPPKKTVKKMDLTSFLNDDTFGSSWAEEDVDLNKITIPIETANANTIPLSELAHAKNNSNNTRSGGFGGSFGGRSRLDPALGGGSSDRREEYPVPDAPPYRAVINNIPWDITPEGVQAWVEDGLVKPEAVEEVVLPKNLRDPTRLKGNAFVTLKERADLVAVLKFNGTKLNERTVYVSVAAPRRGGGADVDWSSARGSNFQGDGREDAPDLDWGAARGSNFRGPRREREEVDIDWTAARGSNFQGSSRPPRREREEVDIDWSAARGSNFQGSSRPPRREREEPDIDWSAARGSNFQSSSRPPRREREEPDIDWSAARGSNFQSSSRPPRREREKEEPALDWGAARGAQFGKPQQTKNTYKDRSLTNKKTTDEQPKIQKSVYDVLRTEDDDEDEEAEKQNGDAKENKVDAAVEKLQDKTAQLTVEDGDNWEVVGKK
Turning to B5, the binding entry is on record as “binds”.

B6: Aco1 (protein, UniProt P19414 17-778)
chain: ATVSNLTRDSKVNQNLLEDHSFINYKQNVETLDIVRKRLNRPFTYAEKILYGHLDDPHGQDIQRGVSYLKLRPDRVACQDATAQMAILQFMSAGLPQVAKPVTVHCDHLIQAQVGGEKDLKRAIDLNKEVYDFLASATAKYNMGFWKPGSGIIHQIVLENYAFPGALIIGTDSHTPNAGGLGQLAIGVGGADAVDVMAGRPWELKAPKILGVKLTGKMNGWTSPKDIILKLAGITTVKGGTGKIVEYFGDGVDTFSATGMGTICNMGAEIGATTSVFPFNKSMIEYLEATGRGKIADFAKLYHKDLLSADKDAEYDEVVEIDLNTLEPYINGPFTPDLATPVSKMKEVAVANNWPLDVRVGLIGSCTNSSYEDMSRSASIVKDAAAHGLKSKTIFTVTPGSEQIRATIERDGQLETFKEFGGIVLANACGPCIGQWDRRDIKKGDKNTIVSSYNRNFTSRNDGNPQTHAFVASPELVTAFAIAGDLRFNPLTDKLKDKDGNEFMLKPPHGDGLPQRGYDAGENTYQAPPADRSTVEVKVSPTSDRLQLLKPFKPWDGKDAKDMPILIKAVGKTTTDHISMAGPWLKYRGHLENISNNYMIGAINAENKKANCVKNVYTGEYKGVPDTARDYRDQGIKWVVIGDENFGEGSSREHAALEPRFLGGFAIITKSFARIHETNLKKQGLLPLNFKNPADYDKINPDDRIDILGLAELAPGKPVTMRVHPKNGKPWDAVLTHTFNDEQIEWFKYGSALNKIKADEKK
As for B6, the binding entry is on record as “binds”.

B7: Scp160 (protein, UniProt P06105 1-1222)
chain: MSEEQTAIDSPPSTVEGSVETVTTIDSPSTTASTIAATAEEHPQLEKKPTPLPSLKDLPSLGSNAAFANVKVSWGPNMKPAVSNSPSPSPSAPSLTTGLGAKRMRSKNIQEAFTLDLQSQLSITKPELSRIVQSVKKNHDVSVESTLSKNARTFLVSGVAANVHEAKRELVKKLTKPINAVIEVPSKCKASIIGSGGRTIREISDAYEVKINVSKEVNENSYDEDMDDTTSNVSLFGDFESVNLAKAKILAIVKEETKNATIKLVVEDEKYLPYIDVSEFASDEGDEEVKVQFYKKSGDIVILGPREKAKATKTSIQDYLKKLASNLDEEKVKIPSKFQFLIDAEELKEKYNVIVTFPSTPDDELVSFVGLRDKVGEAITYARSSSKSYVVESLDISKAHSKNLTHAKNLIMYFTKYSVLKGLEESHPNVKISLPSIQSLPTAETVTIHISAKSDEANDIKAVRKELISFVNNIPPSETLVITDLDYELFGGSIKHCLLASESSVAFVQFGDYYPNDNSILLVALTEDEDFKPSIEEIQASLNKANESLNSLRTKQNNMETKTYEFSEEVQDSLFKPSSATWKLIMEDISEQEGHLQIKLHTPEENQLTVRGDEKAAKAANKIFESILNSPSSKSKMTVNIPANSVARLIGNKGSNLQQIREKFACQIDIPNEENNNASKDKTVEVTLTGLEYNLTHAKKYLAAEAKKWADIITKELIVPVKFHGSLIGPHGTYRNRLQEKYNVFINFPRDNEIVTIRGPSRGVNKAHEELKALLDFEMENGHKMVINVPAEHVPRIIGKNGDNINDIRAEYGVEMDFLQKSTDPKAQETGEVELEITGSRQNIKDAAKRVESIVAEASDFVTEVLKIDHKYHKSIVGSGGHILREIISKAGGEEIRNKSVDIPNADSENKDITVQGPQKFVKKVVEEINKIVKDAENSVTKTIDIPAERKGALIGPGGIVRRQLESEFNINLFVPNKDDPSGKITITGAPENVEKAEKKILNEIIRENFDREVDVPASIYEYVSERGAFIQKLRMDLSVNVRFGNTSKKANKLARAPIEIPLEKVCGSTEGENAEKTKFTIEEVGAPTSSEEGDITMRLTYEPIDLSSILSDGEEKEVTKDTSNDSAKKEEALDTAVKLIKERIAKAPSATYAGYVWGADTRRFNMIVGPGGSNIKKIREAADVIINVPRKSDKVNDVVYIRGTKAGVEKAGEMVLKSLRR
Turning to B7, the binding entry was “binds”.

B8: Ald4 (protein, UniProt P46367 25-519)
chain: SHLPMTVPIKLPNGLEYEQPTGLFINNKFVPSKQNKTFEVINPSTEEEICHIYEGREDDVEEAVQAADRAFSNGSWNGIDPIDRGKALYRLAELIEQDKDVIASIETLDNGKAISSSRGDVDLVINYLKSSAGFADKIDGRMIDTGRTHFSYTKRQPLGVCGQIIPWNFPLLMWAWKIAPALVTGNTVVLKTAESTPLSALYVSKYIPQAGIPPGVINIVSGFGKIVGEAITNHPKIKKVAFTGSTATGRHIYQSAAAGLKKVTLELGGKSPNIVFADAELKKAVQNIILGIYYNSGEVCCAGSRVYVEESIYDKFIEEFKAASESIKVGDPFDESTFQGAQTSQMQLNKILKYVDIGKNEGATLITGGERLGSKGYFIKPTVFGDVKEDMRIVKEEIFGPVVTVTKFKSADEVINMANDSEYGLAAGIHTSNINTALKVADRVNAGTVWINTYNDFHHAVPFGGFNASGLGREMSVDALQNYLQVKAVRAKLDE
With B8, the binding result is given as “binds”.
